Assays:
[1] = system: 621-102 (TSC2-deficient); experiment: relative viability vs DMSO; higher = less cytotoxic; conditions: serum: 10% FBS, 72 h
[2] = system: 621-103 (TSC2-rescued); experiment: as above; conditions: serum: 10% FBS, 72 h
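Also: immortalized renal angiomyolipoma cells stably carrying empty vector or TSC2, dosed in 384-well plates in DMEM, viability normalized to vehicle-treated wells within each plate.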

Cc1ccccc1-n1c(Cn2nc(-c3cccc(O)c3)c3c(N)ncnc32)nc2cccc(C)c2c1=O [PIK-294]
relative viability [%]
Conditions	0.0001 µM	0.001 µM	0.01 µM	0.1 µM	1 µM	10 µM
[1]	98.747	116	112.66	109.8	108	89.8
[2]	116	101	110.2	111	111.5	93.7

Source: the supplement of paper PMC8960247
